# Data reported in PubChem BioAssay (EPA / NIEHS).
# Sequences of proteins named here, by UniProt entry; tags and fusion partners are left off. A change or cut given only in a name is not applied to a line headed by its entry.
# UniProt P37231: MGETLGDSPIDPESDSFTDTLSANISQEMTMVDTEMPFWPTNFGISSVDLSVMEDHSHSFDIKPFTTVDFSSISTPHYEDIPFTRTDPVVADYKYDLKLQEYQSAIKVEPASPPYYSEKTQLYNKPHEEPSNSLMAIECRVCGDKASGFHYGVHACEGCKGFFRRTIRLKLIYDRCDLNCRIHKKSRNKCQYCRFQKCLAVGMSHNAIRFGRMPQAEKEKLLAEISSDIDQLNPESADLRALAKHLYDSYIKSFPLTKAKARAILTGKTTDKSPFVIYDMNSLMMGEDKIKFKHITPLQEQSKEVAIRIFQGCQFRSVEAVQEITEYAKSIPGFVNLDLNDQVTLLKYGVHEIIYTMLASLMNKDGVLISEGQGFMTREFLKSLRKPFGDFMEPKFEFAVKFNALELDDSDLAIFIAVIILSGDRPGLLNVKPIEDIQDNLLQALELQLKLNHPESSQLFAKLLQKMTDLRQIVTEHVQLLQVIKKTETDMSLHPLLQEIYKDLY
# UniProt O75469: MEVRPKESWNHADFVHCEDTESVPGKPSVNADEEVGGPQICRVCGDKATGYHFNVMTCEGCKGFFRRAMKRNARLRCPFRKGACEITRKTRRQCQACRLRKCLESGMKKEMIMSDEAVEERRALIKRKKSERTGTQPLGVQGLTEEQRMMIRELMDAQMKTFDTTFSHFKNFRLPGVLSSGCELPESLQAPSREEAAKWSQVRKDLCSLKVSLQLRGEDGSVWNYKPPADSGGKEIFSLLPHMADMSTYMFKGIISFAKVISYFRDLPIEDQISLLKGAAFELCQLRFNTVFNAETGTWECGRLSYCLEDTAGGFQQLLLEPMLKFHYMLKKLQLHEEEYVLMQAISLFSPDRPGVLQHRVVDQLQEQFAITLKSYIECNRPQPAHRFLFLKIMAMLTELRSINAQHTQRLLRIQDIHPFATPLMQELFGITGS
# UniProt P13631, whole entry, looked up: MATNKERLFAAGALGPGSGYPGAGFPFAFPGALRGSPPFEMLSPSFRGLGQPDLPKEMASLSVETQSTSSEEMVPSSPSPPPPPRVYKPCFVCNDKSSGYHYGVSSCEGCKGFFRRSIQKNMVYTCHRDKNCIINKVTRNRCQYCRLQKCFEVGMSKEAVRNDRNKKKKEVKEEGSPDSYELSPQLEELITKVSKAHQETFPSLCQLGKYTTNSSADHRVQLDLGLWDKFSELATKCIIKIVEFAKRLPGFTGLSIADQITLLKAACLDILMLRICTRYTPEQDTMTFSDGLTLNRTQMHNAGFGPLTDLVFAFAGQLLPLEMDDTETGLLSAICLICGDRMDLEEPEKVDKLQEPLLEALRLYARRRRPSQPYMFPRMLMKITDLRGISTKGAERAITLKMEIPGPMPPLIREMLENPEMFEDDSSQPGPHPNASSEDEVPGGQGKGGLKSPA
# UniProt Q92753: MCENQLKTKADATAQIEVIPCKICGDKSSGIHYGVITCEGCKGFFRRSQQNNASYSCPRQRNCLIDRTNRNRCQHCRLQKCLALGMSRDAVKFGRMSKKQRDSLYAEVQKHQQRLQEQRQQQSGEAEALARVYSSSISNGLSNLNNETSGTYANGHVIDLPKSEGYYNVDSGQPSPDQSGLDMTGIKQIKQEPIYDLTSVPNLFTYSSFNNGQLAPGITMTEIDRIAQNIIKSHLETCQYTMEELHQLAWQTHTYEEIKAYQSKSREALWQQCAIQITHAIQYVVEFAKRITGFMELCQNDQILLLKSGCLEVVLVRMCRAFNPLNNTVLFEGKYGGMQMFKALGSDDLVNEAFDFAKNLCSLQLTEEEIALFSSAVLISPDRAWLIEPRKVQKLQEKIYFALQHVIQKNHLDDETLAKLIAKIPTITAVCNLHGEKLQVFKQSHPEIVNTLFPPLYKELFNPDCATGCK
# UniProt P51449: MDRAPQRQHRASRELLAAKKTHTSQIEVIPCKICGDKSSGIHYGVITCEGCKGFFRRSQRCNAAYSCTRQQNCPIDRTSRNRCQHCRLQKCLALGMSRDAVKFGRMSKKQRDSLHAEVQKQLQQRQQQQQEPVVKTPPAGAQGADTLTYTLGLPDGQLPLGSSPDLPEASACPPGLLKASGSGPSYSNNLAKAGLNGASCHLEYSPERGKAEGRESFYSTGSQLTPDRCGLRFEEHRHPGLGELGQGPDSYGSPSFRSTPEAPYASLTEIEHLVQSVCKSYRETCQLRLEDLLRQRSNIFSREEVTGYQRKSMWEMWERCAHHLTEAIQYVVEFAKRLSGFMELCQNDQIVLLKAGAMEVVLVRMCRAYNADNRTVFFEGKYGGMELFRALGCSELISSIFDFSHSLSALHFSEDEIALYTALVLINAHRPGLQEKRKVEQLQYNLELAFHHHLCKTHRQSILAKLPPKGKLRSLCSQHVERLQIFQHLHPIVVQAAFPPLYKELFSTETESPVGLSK
# UniProt P19793: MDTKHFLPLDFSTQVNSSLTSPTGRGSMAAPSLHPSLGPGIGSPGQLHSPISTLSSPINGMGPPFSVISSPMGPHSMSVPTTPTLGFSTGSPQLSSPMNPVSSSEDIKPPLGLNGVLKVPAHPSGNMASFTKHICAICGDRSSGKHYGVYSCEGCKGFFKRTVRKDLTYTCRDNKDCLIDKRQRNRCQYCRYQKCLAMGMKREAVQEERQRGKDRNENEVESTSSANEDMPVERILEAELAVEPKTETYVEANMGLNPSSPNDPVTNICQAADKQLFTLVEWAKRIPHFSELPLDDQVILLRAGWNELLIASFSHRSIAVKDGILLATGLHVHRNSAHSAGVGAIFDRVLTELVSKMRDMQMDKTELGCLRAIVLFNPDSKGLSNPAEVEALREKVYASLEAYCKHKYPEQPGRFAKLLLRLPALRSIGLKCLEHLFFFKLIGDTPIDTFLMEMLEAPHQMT
# UniProt P28702: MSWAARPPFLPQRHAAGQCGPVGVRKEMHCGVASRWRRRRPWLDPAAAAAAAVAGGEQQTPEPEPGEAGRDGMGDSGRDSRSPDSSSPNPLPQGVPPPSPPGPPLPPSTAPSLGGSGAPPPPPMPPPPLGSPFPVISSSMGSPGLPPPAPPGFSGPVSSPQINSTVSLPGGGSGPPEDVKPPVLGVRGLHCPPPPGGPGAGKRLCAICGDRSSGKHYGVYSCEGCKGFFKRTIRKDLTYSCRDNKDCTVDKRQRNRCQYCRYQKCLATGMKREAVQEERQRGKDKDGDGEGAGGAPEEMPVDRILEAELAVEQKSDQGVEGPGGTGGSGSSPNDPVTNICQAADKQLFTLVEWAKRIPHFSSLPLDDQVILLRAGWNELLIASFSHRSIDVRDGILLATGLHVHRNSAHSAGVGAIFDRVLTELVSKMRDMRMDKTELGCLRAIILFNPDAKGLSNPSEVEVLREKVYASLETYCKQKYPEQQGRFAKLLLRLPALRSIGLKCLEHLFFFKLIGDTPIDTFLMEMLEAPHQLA
# UniProt P10827: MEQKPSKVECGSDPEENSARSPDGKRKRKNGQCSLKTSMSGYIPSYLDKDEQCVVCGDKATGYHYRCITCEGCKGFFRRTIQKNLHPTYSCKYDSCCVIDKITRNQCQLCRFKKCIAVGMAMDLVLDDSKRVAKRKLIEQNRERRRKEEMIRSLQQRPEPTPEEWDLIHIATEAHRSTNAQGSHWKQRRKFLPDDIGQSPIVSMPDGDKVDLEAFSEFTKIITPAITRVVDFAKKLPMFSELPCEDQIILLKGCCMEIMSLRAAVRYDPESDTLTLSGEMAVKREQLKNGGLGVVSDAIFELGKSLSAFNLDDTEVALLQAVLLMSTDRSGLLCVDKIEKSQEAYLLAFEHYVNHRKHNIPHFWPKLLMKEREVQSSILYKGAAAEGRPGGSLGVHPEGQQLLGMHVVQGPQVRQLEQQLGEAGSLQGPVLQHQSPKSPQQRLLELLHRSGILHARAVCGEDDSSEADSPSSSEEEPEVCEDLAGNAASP
# UniProt P11473: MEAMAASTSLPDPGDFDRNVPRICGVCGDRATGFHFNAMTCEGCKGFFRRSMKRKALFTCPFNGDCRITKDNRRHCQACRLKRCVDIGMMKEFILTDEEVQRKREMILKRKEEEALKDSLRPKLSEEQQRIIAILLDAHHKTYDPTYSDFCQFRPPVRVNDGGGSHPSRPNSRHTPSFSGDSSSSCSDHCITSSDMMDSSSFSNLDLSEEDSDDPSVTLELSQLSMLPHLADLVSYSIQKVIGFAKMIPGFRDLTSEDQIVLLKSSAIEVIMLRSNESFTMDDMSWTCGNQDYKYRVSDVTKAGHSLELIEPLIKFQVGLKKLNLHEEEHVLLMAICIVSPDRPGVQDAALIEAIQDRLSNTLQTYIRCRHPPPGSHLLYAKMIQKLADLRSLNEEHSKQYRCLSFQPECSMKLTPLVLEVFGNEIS
# Values joined by “and” are separate entries in the source; they are usually repeats but may differ in a detail not shown here. Equal values may be shown once. The inconclusive results got no clear call from the source; some entries with a clear call stand among them for comparison. Potencies of inconclusive entries are doubtful fits and often do not repeat. A structure can be active in one record and inactive in another. Active and inactive are the calls of the source. How the source made its calls: active means hit-call score of the fitted dose curve at least 0.9, where 1 is the maximum; inconclusive means response in the unintended direction; inactive means score below 0.9.
# Assays:
# [1] = molecular target: Peroxisome proliferator-activated receptor gamma (Homo sapiens) (UniProt P37231); test: ATG_PPARg_TRANS: Attagene TRANS-FACTORIAL HepG2 Assay for human Peroxisome Proliferator-activated Receptor-gamma (PPARg) (AID 2283007)
# Outline: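 Read-out: reporter mRNA induction, detected by fluorescence after RT-PCR and capillary electrophoresis. Transiently transfected human HepG2 liver cells carrying a chimeric NR-Gal4 construct were dosed for 24 h; activity was fitted upward relative to DMSO.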
# [2] = molecular target: Nuclear receptor subfamily 1 group I member 2 (Homo sapiens) (UniProt O75469); test: ATG_PXR_TRANS: Attagene TRANS-FACTORIAL HepG2 Assay for human Pregnane X Receptor (PXR) (AID 2283008)
# Outline: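 Fluorescence intensity of FAM-labelled, HpaI-digested reporter amplicons, separated by capillary electrophoresis, quantifies induction. HepG2 cells with PXR-Gal4 trans-reporter system were exposed 24 h; DMSO defines baseline.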
# [3] = molecular target: human Retinoic Acid Receptor gamma (RARg), RARG (gene 5916) (UniProt P13631); test: ATG_RARg_TRANS: Attagene TRANS-FACTORIAL HepG2 Assay for human Retinoic Acid Receptor gamma (RARg) (AID 2283009);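 on AC50: AC50 is for reporter induction above DMSO meaning RARg activation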
# Outline: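 HepG2 cells transiently transfected with multiplexed reporter units expressing chimeric RARg-GAL4 and GAL4-UAS-driven reporters; 24 h compound exposure. Reporter mRNA quantified by RT-PCR with fluorescent labelling and capillary electrophoresis; gain-of-signal fitted relative to DMSO baseline.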
# [4] = molecular target: human RAR-related Orphan Receptor beta (RORb), RORB (gene 6096) (UniProt Q92753); test: ATG_RORb_TRANS: Attagene TRANS-FACTORIAL HepG2 Assay for human RAR-related Orphan Receptor beta (RORb) (AID 2283010);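 on AC50: potency for increased reporter mRNA meaning activation of RORb-Gal4 chimera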
# Outline: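 HepG2 cells were transiently transfected with multiplexed GAL4-UAS reporter units expressing chimeric nuclear receptor–GAL4 proteins, then dosed for 24 h. Reporter mRNA was quantified by RT-PCR with fluorescent labelling and capillary electrophoresis; gain of signal was fitted relative to DMSO.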
# [5] = molecular target: human RAR-related Orphan Receptor gamma (RORg), RORC (gene 6097) (UniProt P51449); test: ATG_RORg_TRANS: Attagene TRANS-FACTORIAL HepG2 Assay for human RAR-related Orphan Receptor gamma (RORg) (AID 2283011);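 on AC50: potency for induction of reporter transcripts above DMSO so activators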
# Outline: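 Reporter transcripts from a transfected RORg-GAL4 chimera in HepG2 cells were quantified 24 h after dosing by RT-PCR, 6-FAM labelling, HpaI digestion and capillary electrophoresis; increases over DMSO baseline were fitted.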
# [6] = molecular target: Retinoic acid receptor RXR-alpha (Homo sapiens) (UniProt P19793); test: ATG_RXRa_TRANS: Attagene TRANS-FACTORIAL HepG2 Assay for human Retinoid X Receptor alpha (RXRa) (AID 2283012)
# Outline: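 HepG2 cells transiently transfected with multiplexed GAL4-UAS reporter units and chimeric NR-GAL4 fusions, dosed 24 h. Reporter mRNA measured by RT-PCR, FAM labelling, HpaI digestion and capillary electrophoresis; gain-of-signal fitted relative to DMSO baseline.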
# [7] = molecular target: human Retinoid X Receptor beta (RXRb), RXRB (gene 6257) (UniProt P28702); test: ATG_RXRb_TRANS: Attagene TRANS-FACTORIAL HepG2 Assay for human Retinoid X Receptor beta (RXRb) (AID 2283013)
# Outline: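 HepG2 cells transiently transfected with multiplexed reporter units driven by GAL4-UAS and exogenous chimeric NR-Gal4 proteins; treated 24 h. Reporter mRNA measured by RT-PCR, 6-FAM labelling and capillary electrophoresis; gain-of-signal fitted versus DMSO baseline.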
# [8] = molecular target: human Thyroid Receptor alpha (THRa1), THRA (gene 7067) (UniProt P10827); test: ATG_THRa1_TRANS: Attagene TRANS-FACTORIAL HepG2 Assay for human Thyroid Receptor alpha (THRa1) (AID 2283014)
# Outline: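 Transcripts from GAL4-UAS-driven reporters, measured after 24 h compound exposure by RT-PCR plus capillary electrophoresis of 6-FAM-labeled fragments, were fitted for gain of signal relative to DMSO. Cells: transiently transfected HepG2 expressing NR-Gal4 chimeras.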
# [9] = molecular target: human Vitamin D Receptor (VDR), VDR (gene 7421) (UniProt P11473); test: ATG_VDR_TRANS: Attagene TRANS-FACTORIAL HepG2 Assay for human Vitamin D Receptor (VDR) (AID 2283022)
# Outline: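 Transactivation by an exogenous VDR-Gal4 chimera in transiently transfected HepG2 cells was measured as reporter transcript level 24 hours after chemical treatment. RT-PCR products were analysed by capillary electrophoresis and fitted in the positive direction relative to DMSO.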
compound,measurement,setting,value
N#CSCSc1nc2ccccc2s1,AC50,[1],active: 23.1 µM
same,outcome,[1],inactive
same,AC50,[2],inconclusive: 0.115 µM
same,AC50,[3],inconclusive: 52.2 µM
same,AC50,[4],active: 12.3 µM
same,outcome,[4],inactive
same,AC50,[5],active: 11.9 µM
same,outcome,[6],inactive
same,AC50,[7],active: 13.3 µM
same,outcome,[8],inactive
C[C@]12CC[C@@H]3c4ccc(O)cc4C[C@@H](CCCCCCCCCS(=O)CCCC(F)(F)C(F)(F)F)[C@H]3[C@@H]1CC[C@@H]2O (stereo partly specified),outcome,[1],inactive
same,AC50,[3],inconclusive: 15.3 µM and inconclusive: 62 µM and inconclusive: 16.5 µM
same,AC50,[4],inconclusive: 15.9 µM and inconclusive: 62 µM
same,outcome,[4],inactive
same,AC50,[5],inconclusive: 62 µM
same,outcome,[5],inactive
same,AC50,[6],inconclusive: 62 µM
same,AC50,[7],inconclusive: 5.67 nM and inconclusive: 510 nM
same,outcome,[7],inactive
same,AC50,[8],inconclusive: 62 µM
O=Nc1ccc(Nc2ccccc2)cc1,AC50,[1],active: 26.6 µM
same,outcome,[4],inactive
same,AC50,[5],active: 40.4 µM
same,AC50,[7],inconclusive: 0.117 µM
same,AC50,[8],inconclusive: 0.0171 µM
COc1cccc(-c2ccc(/C=C\CN3CCCCCC3)cc2Cl)c1,outcome,[1],inactive
same,AC50,[4],inconclusive: 11 µM
same,outcome,[5],inactive
same,AC50,[7],inconclusive: 11 µM
CCC(C)NC(N)=O (stereo unspecified),AC50,[1],inconclusive: 99.5 µM
same,outcome,[4],inactive
same,outcome,[6],inactive
same,AC50,[7],inconclusive: 26.4 µM
same,AC50,[9],inconclusive: 99.5 µM
Nc1ccc(S(=O)(=O)O)c(N)c1,AC50,[1],inconclusive: 173 µM
same,AC50,[2],inconclusive: 100 µM
same,AC50,[6],inconclusive: 181 µM
same,AC50,[8],inconclusive: 23.7 µM
same,outcome,[9],inactive
O=C(Cl)C(F)(F)C(F)(F)C(F)(F)C(F)(F)C(F)(F)C(F)(F)C(F)(F)F,AC50,[1],active: 55.1 µM
same,outcome,[3],inactive
same,outcome,[6],inactive
C[C@]12C[C@H](O)[C@H]3[C@@H](CCC4=CC(=O)CC[C@@]43C)[C@@H]1CC[C@@H]2C(=O)CO,AC50,[1],inconclusive: 1.31 µM and inconclusive: 27 µM
same,AC50,[3],inconclusive: 24.5 µM and inconclusive: 100 µM
same,AC50,[5],inconclusive: 1.83 µM and inconclusive: 1.86 µM and inconclusive: 100 µM
same,outcome,[5],inactive
same,outcome,[7],inactive
OC(Cn1cncn1)(Cn1cncn1)c1ccc(F)cc1F,AC50,[1],inconclusive: 100 µM
same,AC50,[4],inconclusive: 0.00914 µM
same,AC50,[5],inconclusive: 100 µM
same,AC50,[6],inconclusive: 24.6 µM
same,outcome,[7],inactive
CN1CCN(Cc2cc(-c3ccc4[nH]c(=O)oc4c3)co2)[C@@H](c2ccc(F)cc2)C1,AC50,[1],active: 42.4 µM
same,AC50,[4],inconclusive: 33 µM
same,AC50,[5],inconclusive: 33 µM
same,AC50,[7],inconclusive: 33 µM
same,AC50,[8],inconclusive: 3.59 µM

# As a short view, some entries already given.
compound,measurement,setting,value
CCC(C)NC(N)=O (stereo unspecified),AC50,[9],inconclusive: 99.5 µM
Nc1ccc(S(=O)(=O)O)c(N)c1,AC50,[1],inconclusive: 173 µM
same,AC50,[2],inconclusive: 100 µM
same,AC50,[6],inconclusive: 181 µM
